Data reported in paper PMC6929984.

Protein sequences, listed by entry. Tags and fused reporters are not part of them. Lines headed by an entry give the natural chain unless they say otherwise; changes in a name come on top.
UniProt P43694: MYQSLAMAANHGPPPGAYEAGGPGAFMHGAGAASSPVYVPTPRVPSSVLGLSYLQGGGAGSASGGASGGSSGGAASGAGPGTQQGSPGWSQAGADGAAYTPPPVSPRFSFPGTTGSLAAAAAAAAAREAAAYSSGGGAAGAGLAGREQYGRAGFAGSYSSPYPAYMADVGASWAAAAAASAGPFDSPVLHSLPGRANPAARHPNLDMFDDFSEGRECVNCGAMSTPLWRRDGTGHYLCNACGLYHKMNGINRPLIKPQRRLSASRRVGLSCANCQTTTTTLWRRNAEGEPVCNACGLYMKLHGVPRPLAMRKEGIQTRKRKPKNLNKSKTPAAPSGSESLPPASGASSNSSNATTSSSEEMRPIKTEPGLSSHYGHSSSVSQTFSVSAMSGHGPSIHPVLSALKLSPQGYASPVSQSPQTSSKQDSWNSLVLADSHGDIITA
UniProt P35222: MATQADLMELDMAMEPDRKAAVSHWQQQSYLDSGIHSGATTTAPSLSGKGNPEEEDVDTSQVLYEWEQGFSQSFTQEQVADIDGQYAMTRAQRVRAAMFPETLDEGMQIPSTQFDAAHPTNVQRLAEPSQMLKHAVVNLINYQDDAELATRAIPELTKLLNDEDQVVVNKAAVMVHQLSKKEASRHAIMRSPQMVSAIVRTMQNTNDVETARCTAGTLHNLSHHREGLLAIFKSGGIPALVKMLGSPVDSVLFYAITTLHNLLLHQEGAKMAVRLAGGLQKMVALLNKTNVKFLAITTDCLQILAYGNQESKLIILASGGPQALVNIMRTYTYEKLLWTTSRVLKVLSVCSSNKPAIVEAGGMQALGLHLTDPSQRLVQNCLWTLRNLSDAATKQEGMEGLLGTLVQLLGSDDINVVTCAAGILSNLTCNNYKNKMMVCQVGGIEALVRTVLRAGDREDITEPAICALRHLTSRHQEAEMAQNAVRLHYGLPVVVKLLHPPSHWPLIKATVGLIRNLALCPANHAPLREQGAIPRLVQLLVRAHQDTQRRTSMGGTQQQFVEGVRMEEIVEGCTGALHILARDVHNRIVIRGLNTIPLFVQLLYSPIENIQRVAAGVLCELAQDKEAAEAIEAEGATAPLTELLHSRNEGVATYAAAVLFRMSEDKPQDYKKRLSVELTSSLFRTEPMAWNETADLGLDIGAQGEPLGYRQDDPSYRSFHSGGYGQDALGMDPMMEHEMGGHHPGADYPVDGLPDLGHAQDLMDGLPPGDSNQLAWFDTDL
UniProt P36402: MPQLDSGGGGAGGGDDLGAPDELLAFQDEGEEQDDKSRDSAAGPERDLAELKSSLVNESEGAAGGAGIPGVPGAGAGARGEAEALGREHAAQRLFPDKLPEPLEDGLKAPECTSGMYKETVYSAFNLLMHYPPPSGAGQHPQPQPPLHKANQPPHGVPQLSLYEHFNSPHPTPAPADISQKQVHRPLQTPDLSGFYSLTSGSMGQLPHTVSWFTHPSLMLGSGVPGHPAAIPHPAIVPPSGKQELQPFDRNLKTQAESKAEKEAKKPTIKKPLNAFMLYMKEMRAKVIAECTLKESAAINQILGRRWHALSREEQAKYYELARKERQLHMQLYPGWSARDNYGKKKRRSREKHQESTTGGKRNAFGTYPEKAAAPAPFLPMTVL

Assays:
[1] = molecular target: Myc tagged GATA4 deleted of ZF1 (human) (UniProt P43694); test: co-IP; HEK293 cells (2×10^6) transfected with the indicated Myc- and FLAG-tagged plasmids (5 mg each (so in the source)); NP-40 lysis buffer; immunoblot (Figure 3E, 3F)
[2] = molecular target: FLAG tagged GATA4, C4A mutant of ZF1 (human) (UniProt P43694); test: as above
[3] = molecular target: β-catenin-N-luciferase (human) (UniProt P35222); test: split reporter; split firefly luciferase (the paper: bimolecular fluorescence complementation assay): β-catenin-N-luciferase (0.1 mg as printed) with LEF1-C-luciferase or TCF1-C-luciferase, with or without GATA4; luciferase read 24 hours after transfection; HEK 293 cells in the legend, HepG2 in the text

For “FLAG tagged β-catenin (from UniProt P35222 1-781)”, the binding [1] was “binds”.
For “Myc tagged β-catenin (from UniProt P35222 1-781)”, the binding [2] was “binds”.
In the case of TCF1-C-luciferase (from UniProt P36402), the binding [3] is reported as “binds”.

Results are given in words; binding and its absence hold for the method and conditions named. In cells and extracts the contact can be indirect. A result given as binding can be weak or reduced; the word gives no strength.
